Experimental findings from article PMC8405816 are described below.

Sequences of proteins named here, by UniProt entry; tags and fusion partners are left off.
UniProt P12956: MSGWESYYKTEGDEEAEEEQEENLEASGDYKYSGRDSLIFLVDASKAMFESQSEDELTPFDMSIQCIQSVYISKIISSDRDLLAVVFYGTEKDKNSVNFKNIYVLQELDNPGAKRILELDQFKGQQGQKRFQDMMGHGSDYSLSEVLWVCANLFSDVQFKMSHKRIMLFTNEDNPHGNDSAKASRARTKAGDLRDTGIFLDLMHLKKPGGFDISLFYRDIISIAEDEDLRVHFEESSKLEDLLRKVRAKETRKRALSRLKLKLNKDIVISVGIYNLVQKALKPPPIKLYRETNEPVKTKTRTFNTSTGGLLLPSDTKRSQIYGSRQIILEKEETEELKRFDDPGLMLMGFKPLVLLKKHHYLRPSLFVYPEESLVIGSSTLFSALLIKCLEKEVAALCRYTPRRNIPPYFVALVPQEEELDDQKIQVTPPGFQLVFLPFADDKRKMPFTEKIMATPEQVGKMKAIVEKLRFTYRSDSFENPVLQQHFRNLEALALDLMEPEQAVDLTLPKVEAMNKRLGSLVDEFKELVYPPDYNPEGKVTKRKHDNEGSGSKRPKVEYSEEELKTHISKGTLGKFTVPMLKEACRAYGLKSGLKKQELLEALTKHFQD
UniProt P13010: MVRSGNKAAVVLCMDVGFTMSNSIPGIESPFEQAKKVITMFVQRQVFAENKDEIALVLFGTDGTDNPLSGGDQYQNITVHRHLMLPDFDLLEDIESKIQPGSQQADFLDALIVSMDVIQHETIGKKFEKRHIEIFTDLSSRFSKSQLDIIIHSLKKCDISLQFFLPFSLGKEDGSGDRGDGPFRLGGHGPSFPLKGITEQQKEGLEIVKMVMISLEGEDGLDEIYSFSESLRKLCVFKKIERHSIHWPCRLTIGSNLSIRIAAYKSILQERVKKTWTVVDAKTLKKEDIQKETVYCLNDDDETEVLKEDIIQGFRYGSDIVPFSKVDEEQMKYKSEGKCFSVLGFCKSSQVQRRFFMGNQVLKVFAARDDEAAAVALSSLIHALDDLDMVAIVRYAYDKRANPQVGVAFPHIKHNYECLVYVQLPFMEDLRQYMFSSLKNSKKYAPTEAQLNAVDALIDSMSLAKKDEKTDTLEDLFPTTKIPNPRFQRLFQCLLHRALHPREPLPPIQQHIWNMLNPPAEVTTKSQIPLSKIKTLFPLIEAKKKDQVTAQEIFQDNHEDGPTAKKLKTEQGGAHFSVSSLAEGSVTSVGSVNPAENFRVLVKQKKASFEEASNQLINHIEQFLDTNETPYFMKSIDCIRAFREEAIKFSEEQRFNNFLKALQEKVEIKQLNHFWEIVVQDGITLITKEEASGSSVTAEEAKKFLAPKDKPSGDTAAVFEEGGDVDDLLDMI

Experiment [1] has as its target T1, pcDNA3.1-FLAG-VAV2 (UniProt P52735).
T1 sequence: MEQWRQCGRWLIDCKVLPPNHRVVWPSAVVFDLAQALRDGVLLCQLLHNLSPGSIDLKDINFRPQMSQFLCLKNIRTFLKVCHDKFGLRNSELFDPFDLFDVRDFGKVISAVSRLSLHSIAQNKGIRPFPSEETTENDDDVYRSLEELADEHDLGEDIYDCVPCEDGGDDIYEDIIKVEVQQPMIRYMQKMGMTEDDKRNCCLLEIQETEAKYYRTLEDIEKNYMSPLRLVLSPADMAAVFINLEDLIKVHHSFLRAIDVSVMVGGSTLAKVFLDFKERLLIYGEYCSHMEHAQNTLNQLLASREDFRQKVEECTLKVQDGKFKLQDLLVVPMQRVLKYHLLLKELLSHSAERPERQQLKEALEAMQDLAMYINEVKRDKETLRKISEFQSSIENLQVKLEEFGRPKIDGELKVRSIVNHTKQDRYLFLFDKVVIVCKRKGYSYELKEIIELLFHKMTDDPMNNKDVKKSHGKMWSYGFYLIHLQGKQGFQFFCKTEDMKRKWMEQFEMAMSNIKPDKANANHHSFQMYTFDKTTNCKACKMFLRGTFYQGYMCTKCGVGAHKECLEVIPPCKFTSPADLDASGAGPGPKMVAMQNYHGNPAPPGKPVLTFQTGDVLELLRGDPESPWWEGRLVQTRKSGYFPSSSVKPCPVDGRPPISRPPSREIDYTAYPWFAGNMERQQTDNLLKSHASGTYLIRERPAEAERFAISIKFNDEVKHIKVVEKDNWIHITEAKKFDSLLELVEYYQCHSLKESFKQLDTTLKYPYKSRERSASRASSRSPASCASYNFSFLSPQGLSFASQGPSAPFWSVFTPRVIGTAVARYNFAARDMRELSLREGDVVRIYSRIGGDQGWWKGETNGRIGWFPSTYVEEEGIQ
In words: co-IP; KYSE150 cells co-transfected with HIS-XRCC6 or MYC-XRCC5 and various truncations of FLAG VAV2; lysates immunoprecipitated and Western blotted.

In experiment [2] the target is T2, VAV2 (endogenous) (human (endogenous in KYSE30, KYSE150, KYSE450)) (UniProt P52735).
T2 sequence: T1 sequence
In words: co-IP; RIPA lysates of KYSE150 and KYSE450 cells, immunoprecipitated with antibody against VAV2, Ku70 or Ku80 on Protein G Dynabeads, IgG as control, Western blot; also anti-Ku70 IP from ESCC cells overexpressing VAV2. Background: A western blot detects proteins with antibodies after separation by electrophoresis.

Experiment [3] addresses T3, FLAG-tagged VAV2 (UniProt P52735).
T3 sequence: T1 sequence
Nature of the experiment: co-IP; lysates of ESCC cells ectopically expressing FLAG-tagged VAV2, with or without siVAV2, immunoprecipitated with anti-FLAG or IgG, Western blot of FLAG-VAV2, Ku70 and Ku80.

Experiment [4] deals with Ku70 (endogenous) (human (endogenous in KYSE30, KYSE150, KYSE450)) (UniProt P12956). Nature of the experiment: co-IP; RIPA lysates of KYSE150 and KYSE450 cells, immunoprecipitated with antibody against VAV2, Ku70 or Ku80 on Protein G Dynabeads, IgG as control, Western blot; also anti-Ku70 IP from ESCC cells overexpressing VAV2.
Experiment [5] has as its target Ku80 (endogenous) (human (endogenous in KYSE30, KYSE150, KYSE450)) (UniProt P13010). The description is as above.

No constants are given. Whether binding was seen depends on the method and setting. In cells and extracts the contact can be indirect. Some entries that bind do so weakly or less than the wild type. For part of these data: Tags and fused reporters may be left off the sequences shown.

For “HIS-XRCC6 (producing Ku70) (from UniProt P12956 1-609)”, the binding entry in experiment [1] is listed as “binds”.
As to “Ku70 (endogenous) (from UniProt P12956 1-609)”, the binding result in experiment [2] and in experiment [3] was “binds” each time.
For the molecule “Ku80 (endogenous) (from UniProt P13010 1-732)”, the binding entry in experiment [2] and in experiment [3] was “binds” in each case.
For “MYC-XRCC5 (producing Ku80) (from UniProt P13010 1-732)”, the binding entry in experiment [1] was “binds weakly”.

B1: VAV2 (stably overexpressed by lentivirus) (protein, UniProt P52735 1-878)
chain: T1 sequence
As to B1, in experiment [4], the binding result is given as “binds”.

B2: VAV2 (endogenous) (protein, UniProt P52735 1-878)
chain: T1 sequence
For the molecule B2, the binding result in experiment [4] and in experiment [5] was “binds” in each case.
